PubChem BioAssay AID1259275 | Sanger Institute – 2017

- Test: 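Knock-downs that cut viability on their own or combined with BYL719, cetuximab or trametinib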 (primary screen)
- Cells: COLO320HSR human colorectal cancer cells
- Knock-down reagent: siRNA pool against human genes
- Conditions: anchor drug added one day after transfection: BYL719 at 1 µM, cetuximab at 5 µg/ml or trametinib at 10 nM; DMSO as vehicle arm
- Measurement: 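Viability averaged over replicates as a fraction of the non-targeting pool, a robust z-score for knock-down alone, and synergy scores with BYL719 (1 µM), cetuximab (5 µg/ml) or trametinib (10 nM)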
- Direction: robust z-score, siRNA alone: higher = more viable cells; strongly negative means essential; viability, knock-down alone (DMSO): higher = more viable cells; synergy score with BYL719 and synergy score with cetuximab and synergy score with trametinib: higher = stronger combined killing with drug
- Call rule: 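a gene is called essential when its robust z-score without drug falls below -3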
- Calls: active = essential (siRNA alone); inactive = no change (siRNA alone)
Here is one part, drawn at random, of 794 reagents. 13 of all reagents (1.6%) count as active. 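Calls mark knock-downs lethal by themselves, not drug synergy; drugs went in a day after transfection, with DMSO as vehicle.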 No viability above 1 is reported: the scale is capped. Not stated in the record: the amount of reagent, the time to read-out.

no.	target	robust z-score, siRNA alone	viability, knock-down alone (DMSO) (fraction of control)	synergy score with BYL719	synergy score with cetuximab	synergy score with trametinib	Call
1	PIK3CD	0.396	0.97	-0.131	-0.116	0.0252	inactive
2	MAST2 (microtubule associated serine/threonine kinase 2)	-0.0736	0.928	-0.209	-0.0149	-0.0223	inactive
3	TAOK2 (TAO kinase 2)	0.364	0.967	-0.141	-0.119	-0.0578	inactive
4	STK17A (serine/threonine kinase 17a)	0.127	0.946	-0.0522	-0.036	-0.0651	inactive
5	CDKN1A (cyclin dependent kinase inhibitor 1A)	-0.266	0.91	-0.143	-0.0831	-0.113	inactive
6	CDK15 (cyclin dependent kinase 15)	0.726	1	-0.074	-0.056	-0.0259	inactive
7	DCK (deoxycytidine kinase)	-0.835	0.859	-0.0645	-0.0852	-0.0893	inactive
8	PFKFB1 (6-phosphofructo-2-kinase/fructose-2,6-biphosphatase 1)	0.24	0.956	0.0413	-0.129	-0.0498	inactive
9	PIM1 (Pim-1 proto-oncogene, serine/threonine kinase)	-1.98	0.756	0.0278	0.0194	-0.146	inactive
10	FGFR1 (fibroblast growth factor receptor 1)	0.726	1	-0.123	-0.079	-0.0259	inactive
11	NUAK2 (NUAK family kinase 2)	-1.04	0.841	-0.03	-0.11	-0.117	inactive
12	KCNH8 (potassium voltage-gated channel subfamily H member 8)	0.584	0.987	-0.0887	-0.101	0.0416	inactive
13	MARK4 (microtubule affinity regulating kinase 4)	-0.345	0.903	-0.184	-0.0925	0.0208	inactive
14	STRADA (STE20 related adaptor alpha)	-1.29	0.818	-0.00869	-0.117	-0.0922	inactive

5 successive reagents from above, for reference:
no.	target	robust z-score, siRNA alone	viability, knock-down alone (DMSO) (fraction of control)	synergy score with BYL719	synergy score with cetuximab	synergy score with trametinib	Call
2	MAST2 (microtubule associated serine/threonine kinase 2)	-0.0736	0.928	-0.209	-0.0149	-0.0223	inactive
3	TAOK2 (TAO kinase 2)	0.364	0.967	-0.141	-0.119	-0.0578	inactive
4	STK17A (serine/threonine kinase 17a)	0.127	0.946	-0.0522	-0.036	-0.0651	inactive
5	CDKN1A (cyclin dependent kinase inhibitor 1A)	-0.266	0.91	-0.143	-0.0831	-0.113	inactive
6	CDK15 (cyclin dependent kinase 15)	0.726	1	-0.074	-0.056	-0.0259	inactive

Next records follow.
no.	target	robust z-score, siRNA alone	viability, knock-down alone (DMSO) (fraction of control)	synergy score with BYL719	synergy score with cetuximab	synergy score with trametinib	Call
15	DTYMK (deoxythymidylate kinase)	0.554	0.984	0.0118	0.0782	0.0288	inactive
16	CSK (C-terminal Src kinase)	0.187	0.951	-0.0107	-0.134	-0.0734	inactive
17	CKMT2 (creatine kinase, mitochondrial 2)	0.726	1	-0.0698	-0.0235	0.00919	inactive
18	NME3 (NME/NM23 nucleoside diphosphate kinase 3)	0.726	1	0.0727	-0.0621	0.00442	inactive
19	ROR1 (ROR family WNT receptor 1)	-0.144	0.921	-0.115	-0.137	-0.102	inactive
20	STKLD1 (serine/threonine kinase like domain containing 1)	0.726	1	-0.0668	-0.0621	-0.0259	inactive
21	NUP107 (nucleoporin 107)	-6.39	0.357	-0.211	-0.0951	-0.072	active
22	ARID1A (AT-rich interaction domain 1A)	0.726	1	-0.162	-0.0817	0.015	inactive
23	SRGAP3 (SLIT-ROBO Rho GTPase activating protein 3)	0.726	1	-0.164	-0.0893	-0.0259	inactive
24	AKT2 (AKT serine/threonine kinase 2)	-0.0224	0.932	-0.138	-0.151	-0.0918	inactive
25	CSNK1D (casein kinase 1 delta)	0.38	0.969	-0.115	-0.102	-0.0294	inactive
26	CDKL1 (cyclin dependent kinase like 1)	0.693	0.997	-0.111	-0.0501	-0.0289	inactive
27	DGKA (diacylglycerol kinase alpha)	-0.418	0.897	0.0441	-0.101	-0.123	inactive
28	ZC3H11A (zinc finger CCCH-type containing 11A)	0.726	1	-0.0937	-0.0267	0.00757	inactive
29	PANK3 (pantothenate kinase 3)	0.726	1	-0.231	-0.0893	-0.0259	inactive
30	MAP3K13 (mitogen-activated protein kinase kinase kinase 13)	0.393	0.97	-0.0442	-0.0504	-0.0553	inactive
31	DBF4 (DBF4-CDC7 kinase regulatory subunit)	0.726	1	-0.236	-0.0893	-0.0259	inactive
32	MAPKAPK5 (MAPK activated protein kinase 5)	-0.601	0.88	-0.0862	-0.106	-0.0811	inactive
33	KSR1 (kinase suppressor of ras 1)	-2.27	0.729	-0.0655	-0.0836	-0.119	inactive
34	FLT4 (fms related receptor tyrosine kinase 4)	0.726	1	-0.204	-0.0893	-0.0259	inactive
35	PAK5 (p21 (RAC1) activated kinase 5)	-0.697	0.872	-0.105	-0.152	-0.0693	inactive
36	PLK3 (polo like kinase 3)	0.344	0.966	-0.0698	-0.0274	-0.0196	inactive
37	TJP2 (tight junction protein 2)	0.537	0.983	-0.0589	-0.105	-0.0426	inactive
38	MYLK (myosin light chain kinase)	-0.185	0.918	0.00139	-0.0108	0.0472	inactive
39	PCBP1 (poly(rC) binding protein 1)	-0.375	0.901	-0.155	-0.0442	-0.114	inactive
40	PKN1 (protein kinase N1)	0.726	1	-0.217	-0.0893	-0.0259	inactive
41	CDK1 (cyclin dependent kinase 1)	0.726	1	-0.272	-0.0893	-0.0259	inactive
42	PHKA1 (phosphorylase kinase regulatory subunit alpha 1)	0.726	1	-0.13	-0.0602	-0.0259	inactive
43	ACSL6 (acyl-CoA synthetase long chain family member 6)	0.305	0.962	-0.193	-0.0151	-0.063	inactive
44	PLK4 (polo like kinase 4)	-0.214	0.915	-0.155	-0.144	-0.0454	inactive
